From ChEMBL document CHEMBL5444388, “Affinity Phenotypic Cellular Literature for EUbOPEN Chemogenomic Library” (2024)
The source gives many values for each of these; only a part stands here.

Sequences of proteins named here, by UniProt entry; tags and fusion partners are left off. A change or cut given only in a name is not applied to a line headed by its entry.
UniProt Q02224: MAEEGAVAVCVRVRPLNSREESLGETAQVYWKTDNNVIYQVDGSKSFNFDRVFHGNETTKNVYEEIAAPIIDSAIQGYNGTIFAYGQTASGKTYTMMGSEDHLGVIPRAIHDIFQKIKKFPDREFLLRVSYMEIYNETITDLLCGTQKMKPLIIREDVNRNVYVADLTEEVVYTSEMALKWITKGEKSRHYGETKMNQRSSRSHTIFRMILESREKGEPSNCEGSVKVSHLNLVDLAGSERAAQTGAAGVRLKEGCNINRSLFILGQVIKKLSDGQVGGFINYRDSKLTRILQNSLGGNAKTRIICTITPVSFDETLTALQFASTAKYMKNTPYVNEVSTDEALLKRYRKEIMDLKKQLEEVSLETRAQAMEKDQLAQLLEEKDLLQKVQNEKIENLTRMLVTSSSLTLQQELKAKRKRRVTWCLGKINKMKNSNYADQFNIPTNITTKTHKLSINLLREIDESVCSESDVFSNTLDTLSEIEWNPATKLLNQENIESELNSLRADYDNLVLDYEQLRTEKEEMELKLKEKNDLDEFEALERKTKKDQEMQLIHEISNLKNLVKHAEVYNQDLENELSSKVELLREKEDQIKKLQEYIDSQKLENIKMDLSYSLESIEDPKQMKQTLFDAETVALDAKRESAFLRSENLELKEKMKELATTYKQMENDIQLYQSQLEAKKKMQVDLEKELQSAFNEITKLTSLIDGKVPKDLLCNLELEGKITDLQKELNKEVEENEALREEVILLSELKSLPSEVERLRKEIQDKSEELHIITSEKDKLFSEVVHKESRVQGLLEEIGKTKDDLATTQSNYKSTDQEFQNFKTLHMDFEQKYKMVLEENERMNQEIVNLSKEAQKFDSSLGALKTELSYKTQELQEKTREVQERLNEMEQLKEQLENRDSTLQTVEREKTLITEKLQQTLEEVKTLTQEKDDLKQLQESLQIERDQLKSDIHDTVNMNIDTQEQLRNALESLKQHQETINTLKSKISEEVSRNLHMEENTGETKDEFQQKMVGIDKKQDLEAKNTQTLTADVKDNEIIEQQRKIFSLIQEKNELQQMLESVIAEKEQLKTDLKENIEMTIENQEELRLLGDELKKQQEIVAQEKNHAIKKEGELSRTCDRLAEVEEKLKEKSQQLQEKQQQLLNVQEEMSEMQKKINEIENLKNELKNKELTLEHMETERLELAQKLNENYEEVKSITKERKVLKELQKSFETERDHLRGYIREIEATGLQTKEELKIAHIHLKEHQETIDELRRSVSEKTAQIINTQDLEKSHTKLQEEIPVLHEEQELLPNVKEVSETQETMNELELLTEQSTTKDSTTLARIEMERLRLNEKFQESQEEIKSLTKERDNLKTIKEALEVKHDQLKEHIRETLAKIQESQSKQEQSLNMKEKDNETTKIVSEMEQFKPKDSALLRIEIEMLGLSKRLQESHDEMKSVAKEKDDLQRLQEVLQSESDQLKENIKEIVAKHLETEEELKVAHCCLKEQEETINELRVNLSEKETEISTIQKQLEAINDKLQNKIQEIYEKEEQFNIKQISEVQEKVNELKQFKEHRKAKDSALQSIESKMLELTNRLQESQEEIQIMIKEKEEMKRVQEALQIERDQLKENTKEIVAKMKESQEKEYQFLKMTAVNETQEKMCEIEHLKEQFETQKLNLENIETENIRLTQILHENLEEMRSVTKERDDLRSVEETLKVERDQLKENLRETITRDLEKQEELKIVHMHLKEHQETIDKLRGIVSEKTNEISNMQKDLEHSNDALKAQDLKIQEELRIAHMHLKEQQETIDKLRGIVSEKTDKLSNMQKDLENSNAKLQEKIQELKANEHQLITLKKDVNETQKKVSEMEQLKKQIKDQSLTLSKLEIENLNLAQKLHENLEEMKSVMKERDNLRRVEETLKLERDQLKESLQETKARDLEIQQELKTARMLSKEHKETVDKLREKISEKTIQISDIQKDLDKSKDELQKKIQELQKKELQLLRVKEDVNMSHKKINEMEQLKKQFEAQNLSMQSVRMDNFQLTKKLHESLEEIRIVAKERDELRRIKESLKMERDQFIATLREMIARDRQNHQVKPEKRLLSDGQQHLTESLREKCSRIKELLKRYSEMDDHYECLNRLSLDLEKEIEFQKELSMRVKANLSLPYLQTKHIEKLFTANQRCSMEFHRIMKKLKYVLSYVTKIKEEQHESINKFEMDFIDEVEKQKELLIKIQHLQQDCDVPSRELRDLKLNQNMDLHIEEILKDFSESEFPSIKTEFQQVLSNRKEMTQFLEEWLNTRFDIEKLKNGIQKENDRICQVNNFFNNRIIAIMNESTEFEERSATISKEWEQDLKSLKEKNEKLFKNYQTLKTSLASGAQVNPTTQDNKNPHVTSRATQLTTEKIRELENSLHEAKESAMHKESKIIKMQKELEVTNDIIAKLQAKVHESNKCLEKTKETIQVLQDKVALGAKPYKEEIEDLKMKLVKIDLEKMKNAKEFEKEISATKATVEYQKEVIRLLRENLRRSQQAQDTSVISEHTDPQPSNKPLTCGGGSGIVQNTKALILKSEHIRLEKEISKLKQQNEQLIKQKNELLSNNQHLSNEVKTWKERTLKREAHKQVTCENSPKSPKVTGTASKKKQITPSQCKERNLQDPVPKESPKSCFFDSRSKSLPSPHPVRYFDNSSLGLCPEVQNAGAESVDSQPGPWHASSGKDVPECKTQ

How the values were obtained:
Format in all cases: functional, cell-based
Set-up in all cases: recommended concentration 100 nM
[1] = biological target: Centromere-associated protein E (Homo sapiens) (UniProt Q02224); test: Affinity Phenotypic Cellular interaction: (Cell-growth inhibition assays (growth inhibitory effect colon cancer cell line 639-V)) EUB0000734a CENPE; conditions: Affinity Phenotypic Cellular Source Knowledge https://pubmed.ncbi.nlm.nih.gov/20167803/
[2] = biological target: Centromere-associated protein E (Homo sapiens) (UniProt Q02224); test: Affinity Phenotypic Cellular interaction: (Cell-growth inhibition assays (growth inhibitory effect colon cancer cell line A101D)) EUB0000734a CENPE; conditions: Affinity Phenotypic Cellular Source Knowledge https://pubmed.ncbi.nlm.nih.gov/20167803/
[3] = biological target: Centromere-associated protein E (Homo sapiens) (UniProt Q02224); test: Affinity Phenotypic Cellular interaction: (Cell-growth inhibition assays (growth inhibitory effect colon cancer cell line A7)) EUB0000734a CENPE; conditions: M2A7, Affinity Phenotypic Cellular Source Knowledge https://pubmed.ncbi.nlm.nih.gov/20167803/
[4] = biological target: Centromere-associated protein E (Homo sapiens) (UniProt Q02224); test: Affinity Phenotypic Cellular interaction: (Cell-growth inhibition assays (growth inhibitory effect colon cancer cell line ACHN)) EUB0000734a CENPE; conditions: Affinity Phenotypic Cellular Source Knowledge https://pubmed.ncbi.nlm.nih.gov/20167803/
[5] = biological target: Centromere-associated protein E (Homo sapiens) (UniProt Q02224); test: Affinity Phenotypic Cellular interaction: (Cell-growth inhibition assays (growth inhibitory effect colon cancer cell line ARH-77)) EUB0000734a CENPE; conditions: Affinity Phenotypic Cellular Source Knowledge https://pubmed.ncbi.nlm.nih.gov/20167803/
[6] = biological target: Centromere-associated protein E (Homo sapiens) (UniProt Q02224); test: Affinity Phenotypic Cellular interaction: (Cell-growth inhibition assays (growth inhibitory effect colon cancer cell line BC-1)) EUB0000734a CENPE; conditions: BC1, Affinity Phenotypic Cellular Source Knowledge https://pubmed.ncbi.nlm.nih.gov/20167803/
[7] = biological target: Centromere-associated protein E (Homo sapiens) (UniProt Q02224); test: Affinity Phenotypic Cellular interaction: (Cell-growth inhibition assays (growth inhibitory effect colon cancer cell line BC-2)) EUB0000734a CENPE; conditions: Affinity Phenotypic Cellular Source Knowledge https://pubmed.ncbi.nlm.nih.gov/20167803/
[8] = biological target: Centromere-associated protein E (Homo sapiens) (UniProt Q02224); test: Affinity Phenotypic Cellular interaction: (Cell-growth inhibition assays (growth inhibitory effect colon cancer cell line BPH1)) EUB0000734a CENPE; conditions: BPH-1, Affinity Phenotypic Cellular Source Knowledge https://pubmed.ncbi.nlm.nih.gov/20167803/
[9] = biological target: Centromere-associated protein E (Homo sapiens) (UniProt Q02224); test: Affinity Phenotypic Cellular interaction: (Cell-growth inhibition assays (growth inhibitory effect colon cancer cell line C-4II)) EUB0000734a CENPE; conditions: Affinity Phenotypic Cellular Source Knowledge https://pubmed.ncbi.nlm.nih.gov/20167803/
[10] = biological target: Centromere-associated protein E (Homo sapiens) (UniProt Q02224); test: Affinity Phenotypic Cellular interaction: (Cell-growth inhibition assays (growth inhibitory effect colon cancer cell line DBTRG-05MG)) EUB0000734a CENPE; conditions: Affinity Phenotypic Cellular Source Knowledge https://pubmed.ncbi.nlm.nih.gov/20167803/
[11] = biological target: Centromere-associated protein E (Homo sapiens) (UniProt Q02224); test: Affinity Phenotypic Cellular interaction: (Cell-growth inhibition assays (growth inhibitory effect colon cancer cell line GCT)) EUB0000734a CENPE; conditions: Affinity Phenotypic Cellular Source Knowledge https://pubmed.ncbi.nlm.nih.gov/20167803/
[12] = biological target: Centromere-associated protein E (Homo sapiens) (UniProt Q02224); test: Affinity Phenotypic Cellular interaction: (Cell-growth inhibition assays (growth inhibitory effect colon cancer cell line HCT116)) EUB0000734a CENPE; conditions: HCT-116, Affinity Phenotypic Cellular Source Knowledge https://pubmed.ncbi.nlm.nih.gov/20167803/
[13] = biological target: Centromere-associated protein E (Homo sapiens) (UniProt Q02224); test: Affinity Phenotypic Cellular interaction: (Cell-growth inhibition assays (growth inhibitory effect colon cancer cell line HPAFII)) EUB0000734a CENPE; conditions: HPAF-II, Affinity Phenotypic Cellular Source Knowledge https://pubmed.ncbi.nlm.nih.gov/20167803/
[14] = biological target: Centromere-associated protein E (Homo sapiens) (UniProt Q02224); test: Affinity Phenotypic Cellular interaction: (Cell-growth inhibition assays (growth inhibitory effect colon cancer cell line HuT78)) EUB0000734a CENPE; conditions: Affinity Phenotypic Cellular Source Knowledge https://pubmed.ncbi.nlm.nih.gov/20167803/
[15] = biological target: Centromere-associated protein E (Homo sapiens) (UniProt Q02224); test: Affinity Phenotypic Cellular interaction: (Cell-growth inhibition assays (growth inhibitory effect breast cancer cell line KPL-1)) EUB0000734a CENPE; conditions: Affinity Phenotypic Cellular Source Knowledge https://pubmed.ncbi.nlm.nih.gov/20167803/
[16] = biological target: Centromere-associated protein E (Homo sapiens) (UniProt Q02224); test: Affinity Phenotypic Cellular interaction: (Cell-growth inhibition assays (growth inhibitory effect colon cancer cell line LOX IMVI)) EUB0000734a CENPE; conditions: Affinity Phenotypic Cellular Source Knowledge https://pubmed.ncbi.nlm.nih.gov/20167803/
[17] = biological target: Centromere-associated protein E (Homo sapiens) (UniProt Q02224); test: Affinity Phenotypic Cellular interaction: (Cell-growth inhibition assays (growth inhibitory effect colon cancer cell line LS1034)) EUB0000734a CENPE; conditions: LS-1034, Affinity Phenotypic Cellular Source Knowledge https://pubmed.ncbi.nlm.nih.gov/20167803/
[18] = biological target: Centromere-associated protein E (Homo sapiens) (UniProt Q02224); test: Affinity Phenotypic Cellular interaction: (Cell-growth inhibition assays (growth inhibitory effect colon cancer cell line M14)) EUB0000734a CENPE; conditions: Affinity Phenotypic Cellular Source Knowledge https://pubmed.ncbi.nlm.nih.gov/20167803/
[19] = biological target: Centromere-associated protein E (Homo sapiens) (UniProt Q02224); test: Affinity Phenotypic Cellular interaction: (Cell-growth inhibition assays (growth inhibitory effect colon cancer cell line Malme-3M)) EUB0000734a CENPE; conditions: Affinity Phenotypic Cellular Source Knowledge https://pubmed.ncbi.nlm.nih.gov/20167803/
[20] = biological target: Centromere-associated protein E (Homo sapiens) (UniProt Q02224); test: Affinity Phenotypic Cellular interaction: (Cell-growth inhibition assays (growth inhibitory effect colon cancer cell line MDA-MB-175-VII)) EUB0000734a CENPE; conditions: Affinity Phenotypic Cellular Source Knowledge https://pubmed.ncbi.nlm.nih.gov/20167803/
[21] = biological target: Centromere-associated protein E (Homo sapiens) (UniProt Q02224); test: Affinity Phenotypic Cellular interaction: (Cell-growth inhibition assays (growth inhibitory effect colon cancer cell line MDA-MB-453)) EUB0000734a CENPE; conditions: Affinity Phenotypic Cellular Source Knowledge https://pubmed.ncbi.nlm.nih.gov/20167803/
[22] = biological target: Centromere-associated protein E (Homo sapiens) (UniProt Q02224); test: Affinity Phenotypic Cellular interaction: (Cell-growth inhibition assays (growth inhibitory effect colon cancer cell line MX-1)) EUB0000734a CENPE; conditions: MX1, Affinity Phenotypic Cellular Source Knowledge https://pubmed.ncbi.nlm.nih.gov/20167803/
[23] = biological target: Centromere-associated protein E (Homo sapiens) (UniProt Q02224); test: Affinity Phenotypic Cellular interaction: (Cell-growth inhibition assays (growth inhibitory effect colon cancer cell line NCI-H146)) EUB0000734a CENPE; conditions: Affinity Phenotypic Cellular Source Knowledge https://pubmed.ncbi.nlm.nih.gov/20167803/
[24] = biological target: Centromere-associated protein E (Homo sapiens) (UniProt Q02224); test: Affinity Phenotypic Cellular interaction: (Cell-growth inhibition assays (growth inhibitory effect colon cancer cell line NCI-H23)) EUB0000734a CENPE; conditions: Affinity Phenotypic Cellular Source Knowledge https://pubmed.ncbi.nlm.nih.gov/20167803/
[25] = biological target: Centromere-associated protein E (Homo sapiens) (UniProt Q02224); test: Affinity Phenotypic Cellular interaction: (Cell-growth inhibition assays (growth inhibitory effect colon cancer cell line NCI-H322)) EUB0000734a CENPE; conditions: Affinity Phenotypic Cellular Source Knowledge https://pubmed.ncbi.nlm.nih.gov/20167803/
[26] = biological target: Centromere-associated protein E (Homo sapiens) (UniProt Q02224); test: Affinity Phenotypic Cellular interaction: (Cell-growth inhibition assays (growth inhibitory effect colon cancer cell line NCI-H358)) EUB0000734a CENPE; conditions: Affinity Phenotypic Cellular Source Knowledge https://pubmed.ncbi.nlm.nih.gov/20167803/
[27] = biological target: Centromere-associated protein E (Homo sapiens) (UniProt Q02224); test: Affinity Phenotypic Cellular interaction: (Cell-growth inhibition assays (growth inhibitory effect colon cancer cell line NCI-H630)) EUB0000734a CENPE; conditions: Affinity Phenotypic Cellular Source Knowledge https://pubmed.ncbi.nlm.nih.gov/20167803/
[28] = biological target: Centromere-associated protein E (Homo sapiens) (UniProt Q02224); test: Affinity Phenotypic Cellular interaction: (Cell-growth inhibition assays (growth inhibitory effect colon cancer cell line NCI-N87)) EUB0000734a CENPE; conditions: Affinity Phenotypic Cellular Source Knowledge https://pubmed.ncbi.nlm.nih.gov/20167803/
[29] = biological target: Centromere-associated protein E (Homo sapiens) (UniProt Q02224); test: Affinity Phenotypic Cellular interaction: (Cell-growth inhibition assays (growth inhibitory effect colon cancer cell line RKO)) EUB0000734a CENPE; conditions: Affinity Phenotypic Cellular Source Knowledge https://pubmed.ncbi.nlm.nih.gov/20167803/
[30] = biological target: Centromere-associated protein E (Homo sapiens) (UniProt Q02224); test: Affinity Phenotypic Cellular interaction: (Cell-growth inhibition assays (growth inhibitory effect colon cancer cell line RPMI2650)) EUB0000734a CENPE; conditions: RPMI-2650, Affinity Phenotypic Cellular Source Knowledge https://pubmed.ncbi.nlm.nih.gov/20167803/
[31] = biological target: Centromere-associated protein E (Homo sapiens) (UniProt Q02224); test: Affinity Phenotypic Cellular interaction: (Cell-growth inhibition assays (growth inhibitory effect colon cancer cell line SK-N-AS)) EUB0000734a CENPE; conditions: Affinity Phenotypic Cellular Source Knowledge https://pubmed.ncbi.nlm.nih.gov/20167803/
[32] = biological target: Centromere-associated protein E (Homo sapiens) (UniProt Q02224); test: Affinity Phenotypic Cellular interaction: (Cell-growth inhibition assays (growth inhibitory effect colon cancer cell line SK-OV-3)) EUB0000734a CENPE; conditions: Affinity Phenotypic Cellular Source Knowledge https://pubmed.ncbi.nlm.nih.gov/20167803/
[33] = biological target: Centromere-associated protein E (Homo sapiens) (UniProt Q02224); test: Affinity Phenotypic Cellular interaction: (Cell-growth inhibition assays (growth inhibitory effect colon cancer cell line ST486)) EUB0000734a CENPE; conditions: Affinity Phenotypic Cellular Source Knowledge https://pubmed.ncbi.nlm.nih.gov/20167803/
[34] = biological target: Centromere-associated protein E (Homo sapiens) (UniProt Q02224); test: Affinity Phenotypic Cellular interaction: (Cell-growth inhibition assays (growth inhibitory effect colon cancer cell line SW403)) EUB0000734a CENPE; conditions: SW-403, Affinity Phenotypic Cellular Source Knowledge https://pubmed.ncbi.nlm.nih.gov/20167803/
[35] = biological target: Centromere-associated protein E (Homo sapiens) (UniProt Q02224); test: Affinity Phenotypic Cellular interaction: (Cell-growth inhibition assays (growth inhibitory effect colon cancer cell line SW948)) EUB0000734a CENPE; conditions: Affinity Phenotypic Cellular Source Knowledge https://pubmed.ncbi.nlm.nih.gov/20167803/
[36] = biological target: Centromere-associated protein E (Homo sapiens) (UniProt Q02224); test: Affinity Phenotypic Cellular interaction: (Cell-growth inhibition assays (growth inhibitory effect colon cancer cell line THP-1)) EUB0000734a CENPE; conditions: Affinity Phenotypic Cellular Source Knowledge https://pubmed.ncbi.nlm.nih.gov/20167803/

- GIC50 [1]: 27 nM
- GIC50 [2]: 17 nM
- GIC50 [3]: 40 nM
- GIC50 [4]: 61 nM
- GIC50 [5]: 34 nM
- GIC50 [6]: 83 nM
- GIC50 [7]: 45 nM
- GIC50 [8]: 52 nM
- GIC50 [9]: 46 nM
- GIC50 [10]: 17 nM
- GIC50 [11]: 23 nM
- GIC50 [12]: 31 nM
- GIC50 [13]: 5.03 µM
- GIC50 [14]: 40 nM
- GIC50 [15]: 31 nM
- GIC50 [16]: 25 nM
- GIC50 [17]: 97 nM
- GIC50 [18]: 27 nM
- GIC50 [19]: 51 nM
- GIC50 [20]: 23 nM
- GIC50 [21]: 27 nM
- GIC50 [22]: 30 nM
- GIC50 [23]: 5.23 µM
- GIC50 [24]: 27 nM
- GIC50 [25]: 25 nM
- GIC50 [26]: 18 nM
- GIC50 [27]: 47 nM
- GIC50 [28]: 29 nM
- GIC50 [29]: 53 nM
- GIC50 [30]: 36 nM
- GIC50 [31]: 38 nM
- GIC50 [32]: 26 nM
- GIC50 [33]: 26 nM
- GIC50 [34]: 24 nM
- GIC50 [35]: 98 nM
- GIC50 [36]: 12 nM
Structure (SMILES): CC(C)Oc1ccc(C(=O)N[C@H](CNC(=O)CN(C)C)Cc2ccc(-c3cn4cccc([C@H](C)O)c4n3)cc2)cc1Cl
